Experiment [1] deals with T1, FLAG-HA-ZHX2 (R581A) (human) (UniProt Q9Y6X8).
T1 sequence: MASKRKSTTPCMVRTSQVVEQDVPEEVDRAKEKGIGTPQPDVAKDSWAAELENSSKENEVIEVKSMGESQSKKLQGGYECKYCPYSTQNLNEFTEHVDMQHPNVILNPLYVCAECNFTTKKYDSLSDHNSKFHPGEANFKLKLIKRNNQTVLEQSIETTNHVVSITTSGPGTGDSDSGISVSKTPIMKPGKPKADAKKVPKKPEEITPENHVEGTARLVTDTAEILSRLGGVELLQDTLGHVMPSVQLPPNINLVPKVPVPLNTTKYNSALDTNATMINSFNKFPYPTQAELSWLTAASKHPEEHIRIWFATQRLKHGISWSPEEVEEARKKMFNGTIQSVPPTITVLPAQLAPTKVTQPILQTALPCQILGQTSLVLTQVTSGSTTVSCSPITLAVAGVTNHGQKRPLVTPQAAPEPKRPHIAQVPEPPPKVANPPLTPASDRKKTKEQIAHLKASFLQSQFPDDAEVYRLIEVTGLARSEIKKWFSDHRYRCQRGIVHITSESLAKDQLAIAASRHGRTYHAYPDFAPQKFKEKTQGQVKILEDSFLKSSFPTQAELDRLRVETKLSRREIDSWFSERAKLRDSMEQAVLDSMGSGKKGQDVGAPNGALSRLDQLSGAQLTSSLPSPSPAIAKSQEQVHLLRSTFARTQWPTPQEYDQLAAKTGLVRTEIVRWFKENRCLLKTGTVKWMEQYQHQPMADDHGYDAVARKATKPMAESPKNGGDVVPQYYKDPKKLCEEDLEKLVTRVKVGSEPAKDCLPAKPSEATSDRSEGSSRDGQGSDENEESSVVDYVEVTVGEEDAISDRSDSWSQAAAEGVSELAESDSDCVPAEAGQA
Nature of the experiment: co-IP; IP of MDA-MB-231 cells infected with lentivirus encoding either ZHX2 WT or mutation.

Amino acid sequences for entries named in this document (tags omitted).
UniProt Q16665: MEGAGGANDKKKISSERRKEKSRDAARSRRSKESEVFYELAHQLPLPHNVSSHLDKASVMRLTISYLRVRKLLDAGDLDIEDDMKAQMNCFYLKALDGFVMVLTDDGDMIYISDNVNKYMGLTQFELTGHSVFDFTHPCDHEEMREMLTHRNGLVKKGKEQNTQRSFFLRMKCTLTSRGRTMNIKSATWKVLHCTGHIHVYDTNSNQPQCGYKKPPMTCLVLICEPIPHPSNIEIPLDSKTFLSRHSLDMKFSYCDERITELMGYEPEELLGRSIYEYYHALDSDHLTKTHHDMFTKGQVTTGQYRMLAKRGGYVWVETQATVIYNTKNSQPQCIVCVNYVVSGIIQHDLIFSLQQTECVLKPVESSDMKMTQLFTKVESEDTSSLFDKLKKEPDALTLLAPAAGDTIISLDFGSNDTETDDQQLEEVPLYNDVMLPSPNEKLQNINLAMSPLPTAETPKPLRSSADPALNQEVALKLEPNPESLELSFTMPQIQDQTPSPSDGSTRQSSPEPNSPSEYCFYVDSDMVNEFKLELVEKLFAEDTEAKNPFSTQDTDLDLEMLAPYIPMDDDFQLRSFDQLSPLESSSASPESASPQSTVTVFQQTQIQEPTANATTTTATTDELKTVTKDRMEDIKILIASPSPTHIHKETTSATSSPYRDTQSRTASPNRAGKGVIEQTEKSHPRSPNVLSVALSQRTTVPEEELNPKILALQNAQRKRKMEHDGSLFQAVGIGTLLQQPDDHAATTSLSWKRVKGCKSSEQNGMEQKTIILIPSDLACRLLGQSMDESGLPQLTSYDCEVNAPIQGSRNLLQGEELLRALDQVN
UniProt P27540: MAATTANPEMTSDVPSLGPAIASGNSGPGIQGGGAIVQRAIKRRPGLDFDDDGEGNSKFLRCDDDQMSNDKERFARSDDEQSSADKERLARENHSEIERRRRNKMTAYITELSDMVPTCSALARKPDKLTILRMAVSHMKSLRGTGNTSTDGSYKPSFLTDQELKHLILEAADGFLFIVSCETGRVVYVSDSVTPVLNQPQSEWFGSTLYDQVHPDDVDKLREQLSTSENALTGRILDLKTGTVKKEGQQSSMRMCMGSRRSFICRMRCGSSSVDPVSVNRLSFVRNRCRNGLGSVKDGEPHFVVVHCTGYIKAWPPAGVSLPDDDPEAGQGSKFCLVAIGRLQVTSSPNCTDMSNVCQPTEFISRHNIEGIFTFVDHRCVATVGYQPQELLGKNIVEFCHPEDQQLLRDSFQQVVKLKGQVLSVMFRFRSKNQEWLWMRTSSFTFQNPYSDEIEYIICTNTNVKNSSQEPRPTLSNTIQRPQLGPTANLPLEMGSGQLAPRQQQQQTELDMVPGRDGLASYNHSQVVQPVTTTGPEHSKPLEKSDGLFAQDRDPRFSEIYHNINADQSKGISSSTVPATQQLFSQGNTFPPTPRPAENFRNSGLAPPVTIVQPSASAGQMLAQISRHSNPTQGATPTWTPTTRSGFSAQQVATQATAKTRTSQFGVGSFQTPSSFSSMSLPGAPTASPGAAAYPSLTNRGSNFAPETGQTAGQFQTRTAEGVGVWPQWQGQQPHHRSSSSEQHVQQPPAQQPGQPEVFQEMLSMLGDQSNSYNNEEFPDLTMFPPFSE
UniProt Q99814: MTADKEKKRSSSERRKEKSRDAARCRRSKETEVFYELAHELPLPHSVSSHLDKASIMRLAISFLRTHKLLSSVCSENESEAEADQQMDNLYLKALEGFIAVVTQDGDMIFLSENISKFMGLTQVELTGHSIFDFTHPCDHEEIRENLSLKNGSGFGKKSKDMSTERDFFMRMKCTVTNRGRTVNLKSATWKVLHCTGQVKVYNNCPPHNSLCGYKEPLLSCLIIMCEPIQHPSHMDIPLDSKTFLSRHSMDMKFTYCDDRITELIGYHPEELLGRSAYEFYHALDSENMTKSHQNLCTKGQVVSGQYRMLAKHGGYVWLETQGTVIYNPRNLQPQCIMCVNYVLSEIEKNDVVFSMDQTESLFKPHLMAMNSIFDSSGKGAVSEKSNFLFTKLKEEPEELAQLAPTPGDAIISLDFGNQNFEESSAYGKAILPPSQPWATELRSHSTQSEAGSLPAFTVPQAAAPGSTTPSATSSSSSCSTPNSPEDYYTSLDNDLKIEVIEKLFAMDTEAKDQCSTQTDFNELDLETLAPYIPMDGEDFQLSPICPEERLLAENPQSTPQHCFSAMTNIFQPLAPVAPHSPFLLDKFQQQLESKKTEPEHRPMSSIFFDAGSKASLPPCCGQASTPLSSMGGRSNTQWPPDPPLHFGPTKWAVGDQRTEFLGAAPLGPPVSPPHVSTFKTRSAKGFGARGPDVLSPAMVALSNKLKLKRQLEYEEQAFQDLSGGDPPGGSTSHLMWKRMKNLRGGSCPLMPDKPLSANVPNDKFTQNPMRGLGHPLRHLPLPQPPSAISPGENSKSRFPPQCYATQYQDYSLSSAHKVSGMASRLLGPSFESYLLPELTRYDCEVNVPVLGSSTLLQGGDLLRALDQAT

Experiment [2] deals with T2, FLAG-HA-ZHX2 (R674A) (human) (UniProt Q9Y6X8).
T2 sequence: T1 sequence with A581R, R674A
The experiment is described as above.

Experiment [3] addresses T3, FLAG-HA-ZHX2 (WT), Zinc Fingers and Homeoboxes 2 (human) (UniProt Q9Y6X8).
T3 sequence: T1 sequence with A581R
Described as above.

Experiment [4] has as its target T4, ZHX2 (endogenous) (human (endogenous in MDA-MB-231 and MDA-MB-468)) (UniProt Q9Y6X8).
T4 sequence: T1 sequence with A581R
The experiment can be described thus: co-IP; endogenous IP of MDA-MB-231 cells treated with DMOG for 8 hr.

Experiment [5] has as its target T3, FLAG-HA-ZHX2 (WT), Zinc Fingers and Homeoboxes 2 (human). The experiment can be described thus: co-IP; IP with HA beads of MDA-MB-231 cells overexpressing either HA-ZHX2 or HA-HIF1α, immunoblots with indicated antibodies.
Experiment [6] has the same target. Nature of the experiment: co-IP; IP of cell lysates from MDA-MB-231 cells infected with lentivirus encoding control vector (EV) or ZHX2.
The target is the same in experiment [7]. The experiment can be described thus: co-IP; IP and immunoblots with indicated antibodies of MDA-MB-231 cells overexpressing HA-ZHX2 and HA-HIF1α.

Substitutions are numbered along the chain they refer to. These are yes or no findings as the source states them, for the method shown. In cells and extracts the contact can be indirect. Some binding calls cover weakened binding; strength is not graded here. For part of these data: Tags and fused reporters may be left off the sequences shown.

Experimental findings from article PMC8673836 are described below.

Regarding “HIF1α (endogenous), hypoxia-inducible factor 1 alpha (from UniProt Q16665 1-826)”, the binding entry in experiment [1], in experiment [2], in experiment [3], in experiment [4] and in experiment [5] was “binds” each time.
Regarding “HIF1β (endogenous) (from UniProt P27540 1-789)”, the binding entry in experiment [4] and in experiment [5] was “binds” throughout.
Consider “HIF2α (endogenous) (from UniProt Q99814 1-870)”, for which the binding entry in experiment [6] is reported as “no binding”.
As to HA-HIF1α (from UniProt Q16665 1-826), the binding result in experiment [7] is reported as “binds”.
